# Residue numbers refer to the chain shown, from its start. This is one part of the list. For some of these results: At the low end of the ranking the order means little. For some of these results: Construct or isoform of the protein are uncertain.
# Columns and labels:
# Conditions in all cases: yeast three-hybrid, YBZ-1, SC-Leu-His + 0.5 mM 3-AT, 4 days
# [1] = biological target: T1, PUM1 PUF domain R5-PHQ R6-SWD C1007P + R1008H + N1043S + Y1044W + Q1047D (UniProt Q14671)
# T1 sequence: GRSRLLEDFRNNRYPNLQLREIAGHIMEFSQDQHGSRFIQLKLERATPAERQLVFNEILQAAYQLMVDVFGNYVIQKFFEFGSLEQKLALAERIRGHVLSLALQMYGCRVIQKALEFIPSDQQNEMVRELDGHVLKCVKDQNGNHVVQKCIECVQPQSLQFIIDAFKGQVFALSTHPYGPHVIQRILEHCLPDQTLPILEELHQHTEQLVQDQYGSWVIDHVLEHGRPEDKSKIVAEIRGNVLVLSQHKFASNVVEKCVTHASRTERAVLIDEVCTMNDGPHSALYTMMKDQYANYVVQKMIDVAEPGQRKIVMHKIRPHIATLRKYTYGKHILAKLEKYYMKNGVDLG
# [2] = biological target: T2, PUM1 PUF domain R3-THE R4-TFR R7-NPG C935T + R936H + Q939E + N971T + H972F + Q975R + S1079N + N1080P + E1083G (UniProt Q14671)
# T2 sequence: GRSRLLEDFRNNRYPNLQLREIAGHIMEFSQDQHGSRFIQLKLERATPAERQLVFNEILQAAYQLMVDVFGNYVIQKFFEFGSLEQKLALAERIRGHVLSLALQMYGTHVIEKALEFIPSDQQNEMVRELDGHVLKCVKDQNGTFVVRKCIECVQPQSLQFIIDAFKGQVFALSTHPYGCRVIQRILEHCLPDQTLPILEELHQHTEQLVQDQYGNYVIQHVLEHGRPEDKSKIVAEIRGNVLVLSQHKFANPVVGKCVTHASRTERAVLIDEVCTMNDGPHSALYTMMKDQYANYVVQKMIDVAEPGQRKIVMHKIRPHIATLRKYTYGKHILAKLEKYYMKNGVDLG
# [3] = biological target: T3, PUM1 PUF domain R6-SWD R7-NPG N1043S + Y1044W + Q1047D + S1079N + N1080P + E1083G (Homo sapiens) (UniProt Q14671)
# T3 sequence: T1 sequence with P180C, H181R, S252N, N253P, E256G
# [4] = biological target: T4, PUM1 PUF domain R5-PHQ R6-SWD C1007P + R1008H + N1043S + Y1044W + Q1047D (Homo sapiens) (UniProt Q14671)
# T4 sequence: T1 sequence
# [5] = biological target: T5, PUM1 PUF domain R6-SWD R7-NPG N1043S + Y1044W + Q1047D + S1079N + N1080P + E1083G (UniProt Q14671)
# T5 sequence: T1 sequence with P180C, H181R, S252N, N253P, E256G
# [6] = biological target: T6, PUM1 PUF domain R8-NFV Y1123F + Q1126V (Homo sapiens) (UniProt Q14671)
# T6 sequence: T1 sequence with P180C, H181R, S216N, W217Y, D220Q, Y296F, Q299V
# [7] = biological target: T7, PUM1 PUF domain R8-NWG Y1123W + Q1126G (Homo sapiens) (UniProt Q14671)
# T7 sequence: T1 sequence with P180C, H181R, S216N, W217Y, D220Q, Y296W, Q299G
# [8] = biological target: T8, PUM1 PUF domain R8-PWS N1122P + Y1123W + Q1126S (Homo sapiens) (UniProt Q14671)
# T8 sequence: T1 sequence with P180C, H181R, S216N, W217Y, D220Q, N295P, Y296W, Q299S
# [9] = biological target: T9, PUM1 PUF domain R8-PWW N1122P + Y1123W + Q1126W (Homo sapiens) (UniProt Q14671)
# T9 sequence: T1 sequence with P180C, H181R, S216N, W217Y, D220Q, N295P, Y296W, Q299W
# [10] = biological target: T10, PUM1 PUF domain R8-RGW N1122R + Y1123G + Q1126W (Homo sapiens) (UniProt Q14671)
# T10 sequence: T1 sequence with P180C, H181R, S216N, W217Y, D220Q, N295R, Y296G, Q299W
# [11] = biological target: T11, PUM1 PUF domain R8-SYW N1122S + Q1126W (Homo sapiens) (UniProt Q14671)
# T11 sequence: T1 sequence with P180C, H181R, S216N, W217Y, D220Q, N295S, Q299W
sequence,measurement,setting,value
GGCUAGAACUAGUGGAUCCCCCGGCGCCCGGCGGCUCGAGCCCGGGUAAGUACACGUAGUCUGCAUGCCGCCGGGCGCCAUGCCUGCAGGUCGACUCUAGAAAACAUG,binding signal (log2 enrichment (interaction score)),[1],-7.31
GGCUAGAACUAGUGGAUCCCCCGGCGCCCGGCGGCUCGAGCCCGGGUAAGUUGCAGCCGUCUGCAUGCCGCCGGGCGCCAUGCCUGCAGGUCGACUCUAGAAAACAUG,binding signal (log2 enrichment (interaction score)),[2],-3.09
same,binding signal (log2 enrichment (interaction score)),[3],-1.14
GGCUAGAACUAGUGGAUCCCCCGGCGCCCGGCGGCUCGAGCCCGGGUAAGUGGAGCUAGUCUGCAUGCCGCCGGGCGCCAUGCCUGCAGGUCGACUCUAGAAAACAUG,binding signal (log2 enrichment (interaction score)),[1],-7.27
GGCUAGAACUAGUGGAUCCCCCGGCGCCCGGCGGCUCGAGCCCGGGUAAGUCAAAAUAGUCUGCAUGCCGCCGGGCGCCAUGCCUGCAGGUCGACUCUAGAAAACAUG,binding signal (log2 enrichment (interaction score)),[1],< -7.96
GGCUAGAACUAGUGGAUCCCCCGGCGCCCGGCGGCUCGAGCCCGGGUAAGAUUAAAGCGUCUGCAUGCCGCCGGGCGCCAUGCCUGCAGGUCGACUCUAGAAAACAUG,binding signal (log2 enrichment (interaction score)),[1],-7.26
GGCUAGAACUAGUGGAUCCCCCGGCGCCCGGCGGCUCGAGCCCGGGUAAGCGGAAAUAGUCUGCAUGCCGCCGGGCGCCAUGCCUGCAGGUCGACUCUAGAAAACAUG,binding signal (log2 enrichment (interaction score)),[4],-1.04
same,binding signal (log2 enrichment (interaction score)),[3],-1.58
GGCUAGAACUAGUGGAUCCCCCGGCGCCCGGCGGCUCGAGCCCGGGUAAGUUUCAAACGUCUGCAUGCCGCCGGGCGCCAUGCCUGCAGGUCGACUCUAGAAAACAUG,binding signal (log2 enrichment (interaction score)),[5],-2.19
GGCUAGAACUAGUGGAUCCCCCGGCGCCCGGCGGCUCGAGCCCGGGUAAGUUUGAUUAGUCUGCAUGCCGCCGGGCGCCAUGCCUGCAGGUCGACUCUAGAAAACAUG,binding signal (log2 enrichment (interaction score)),[5],-2.04
GGCUAGAACUAGUGGAUCCCCCGGCGCCCGGCGGCUCGAGCCCGGGUAAGCGUAAAUAGUCUGCAUGCCGCCGGGCGCCAUGCCUGCAGGUCGACUCUAGAAAACAUG,binding signal (log2 enrichment (interaction score)),[6],-2.27
same,binding signal (log2 enrichment (interaction score)),[7],-0.72
same,binding signal (log2 enrichment (interaction score)),[8],1.14
same,binding signal (log2 enrichment (interaction score)),[9],1.65
same,binding signal (log2 enrichment (interaction score)),[10],-2.27
same,binding signal (log2 enrichment (interaction score)),[11],-0.45

# Looked up one by one from above, 2 records:
sequence,measurement,setting,value
GGCUAGAACUAGUGGAUCCCCCGGCGCCCGGCGGCUCGAGCCCGGGUAAGUUUGAUUAGUCUGCAUGCCGCCGGGCGCCAUGCCUGCAGGUCGACUCUAGAAAACAUG,binding signal (log2 enrichment (interaction score)),[5],-2.04
GGCUAGAACUAGUGGAUCCCCCGGCGCCCGGCGGCUCGAGCCCGGGUAAGUCAAAAUAGUCUGCAUGCCGCCGGGCGCCAUGCCUGCAGGUCGACUCUAGAAAACAUG,binding signal (log2 enrichment (interaction score)),[1],< -7.96

# Reference: publication PMC8384837
